Experimental data as given in PMC7819943, “Rice protein-binding microarrays: a tool to detect cis-acting elements near promoter regions in rice”.
This is one part of the list.

target: T1, OsSMF1 (Oryza sativa, UniProt Q6ZLB0 1-436); assay: protein-binding microarray (RPBM); PBS, 2% BSA, 51.3 ng/ul salmon testes DNA, 50 uM zinc acetate, 200 nM TF, 25 C, 1 h; high values mean tight binding; conditions: protein: recombinant; tags: N-terminal polyhistidine and DsRed monomer fusion (pET32a); chain copies: 2; label: CyDye5-dUTP incorporated in the synthesized complementary strand; 3' TTTTT single-stranded linker to array surface; dsDNA, one strand shown
T1 sequence: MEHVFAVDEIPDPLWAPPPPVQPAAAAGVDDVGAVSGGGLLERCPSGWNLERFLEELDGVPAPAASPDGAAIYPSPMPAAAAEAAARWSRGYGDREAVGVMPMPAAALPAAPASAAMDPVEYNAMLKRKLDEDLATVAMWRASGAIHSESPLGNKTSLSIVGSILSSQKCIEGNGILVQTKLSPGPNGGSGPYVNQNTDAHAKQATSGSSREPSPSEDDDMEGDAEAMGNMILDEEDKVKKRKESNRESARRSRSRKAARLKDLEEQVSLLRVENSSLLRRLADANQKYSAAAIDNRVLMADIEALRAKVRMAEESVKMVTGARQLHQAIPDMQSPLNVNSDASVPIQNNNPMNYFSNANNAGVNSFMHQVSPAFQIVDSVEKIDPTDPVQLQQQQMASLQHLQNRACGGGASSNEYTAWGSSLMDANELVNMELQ
Summary of the method: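 An Axon 4000B scanner gave the binding signal as per-feature fluorescence intensity in arbitrary units. This followed washing of a custom Agilent array that had been incubated for 1 h at 25 °C with 200 nM protein in PBS, 2% BSA, salmon testes DNA and 50 µM zinc acetate. The proteins were transcription factors fused at the N-terminus to polyhistidine and DsRed, expressed in E. coli BL21-CodonPlus and purified on Ni–NTA.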

Sequence	binding signal
GGCGTGGGCGGCCGTGTGCCCACGTCAAGACGTGCGTGGACGGAGTCACCTAGTGCAG	5040 fluorescence intensity (a.u.)
CTCCGAGGAGCGACAAGGTACGTGGCTCTCCCCTTGCATTCGGAGTCACCTAGTGCAG	4380 fluorescence intensity (a.u.)
TTTGTTCTCTGAGGCATGGATGTGTGCAGTATTATTCCCACGGAGTCACCTAGTGCAG	3310 fluorescence intensity (a.u.)
TAACGGATGGCATCGTTTGCTTGACGTGCGACCCAGTCCGCGGAGTCACCTAGTGCAG	3880 fluorescence intensity (a.u.)
ATACTCAAAACAACACGTGTTACAAATACAGTGGAAACCTCGGAGTCACCTAGTGCAG	4050 fluorescence intensity (a.u.)
TTTGGGCTAGCTCGTTGATTGACACGTCTCCTGAGCATTTCGGAGTCACCTAGTGCAG	4670 fluorescence intensity (a.u.)
ATGAGATTGGAATTAAACGTGTGTCCGAGTCAGCAACTCCCGGAGTCACCTAGTGCAG	17200 fluorescence intensity (a.u.)
TTAATCCAAGCCTTTAATACATAAACCATCCTATGCTCAACGGAGTCACCTAGTGCAG	16900 fluorescence intensity (a.u.)
CCGCCGGCTCTCCTTGCTGCCACCGTAGCCACCGGTGACGCGGAGTCACCTAGTGCAG	4390 fluorescence intensity (a.u.)
GACTGGTGGCCACGACACGCGAGAAGTCCGACACGGCGTCCGGAGTCACCTAGTGCAG	4030 fluorescence intensity (a.u.)
TCCATTAAGCCTCCGTTTAGTAAAGATAAAGATTGGTCAACGGAGTCACCTAGTGCAG	44200 fluorescence intensity (a.u.)
AATTCAAGAGCTAGCTTAACACAAGTTCTAAGACAAATACCGGAGTCACCTAGTGCAG	20400 fluorescence intensity (a.u.)
AATTTGGCATCTGACTGCAGGCACGCACTAGATATTGCTTCGGAGTCACCTAGTGCAG	3160 fluorescence intensity (a.u.)
CTAGCGTGTGATTTTATCCTCCAACGTGGGAGATATTCCTCGGAGTCACCTAGTGCAG	4320 fluorescence intensity (a.u.)
CCACGCAACGCAAGCCCGCTGTCAGTAGACGTCACCCGGTCGGAGTCACCTAGTGCAG	5610 fluorescence intensity (a.u.)
CATGCCTATATAAGCCAAGTCACGCATGCTTAAACAACACCGGAGTCACCTAGTGCAG	3890 fluorescence intensity (a.u.)
ATATGGTTGCCCAGTAGAGGATGTCATCACTGGATTGGCACGGAGTCACCTAGTGCAG	4400 fluorescence intensity (a.u.)
ACATAAACTGATATTTTAGAGTATTATTTTATCGAAGCGCCGGAGTCACCTAGTGCAG	3460 fluorescence intensity (a.u.)
CGTTGCTCCTCCTCGATCTGAACAGGACGAGCGGTGGCGCCGGAGTCACCTAGTGCAG	3550 fluorescence intensity (a.u.)
CACACACCAACATCCACACATCTTTTCAAACCAATTCATCCGGAGTCACCTAGTGCAG	4900 fluorescence intensity (a.u.)
GAGTCAATAATATATGGGTCCCGCTTGCTGACTCAGCTGGCGGAGTCACCTAGTGCAG	38600 fluorescence intensity (a.u.)

Sequence	binding signal
GAAAACCGAGTCAAATACAAATGACGCACCAAAATATCGGCGGAGTCACCTAGTGCAG	6040 fluorescence intensity (a.u.)
CCCGATCCGGGTCAAATCGTCCGACTCATCGGGACAATCTCGGAGTCACCTAGTGCAG	3500 fluorescence intensity (a.u.)
CTGGACACCTCACGAAGTCTCAAACTGCTGTTTGTTCTCACGGAGTCACCTAGTGCAG	4230 fluorescence intensity (a.u.)
CTGCAACAATTTGTCCTTTTCATTTGTCTTGCAGTTCTTGCGGAGTCACCTAGTGCAG	3140 fluorescence intensity (a.u.)
AAGGAAAAGGCCCGCGTGGGCTGAGCGTGCGCCGGTTCACCGGAGTCACCTAGTGCAG	3600 fluorescence intensity (a.u.)
GTCGTTGTTGTCAATAGAGCACGTCATGTTCAGGTTAGGCCGGAGTCACCTAGTGCAG	8250 fluorescence intensity (a.u.)
ACGCGGCCGACCCGCGCGCCTCGATGCGCGAGCCCATCCGCGGAGTCACCTAGTGCAG	3170 fluorescence intensity (a.u.)
GTTAAATATTGACAAAATTTAGCATCAAAACCGTAGAGACCGGAGTCACCTAGTGCAG	18100 fluorescence intensity (a.u.)
TCTCACGATAGGCTGATCTGACCGTCCACGTGTCCCATGCCGGAGTCACCTAGTGCAG	17000 fluorescence intensity (a.u.)
GATCCTTATTTGAAGTGAGCTATTTTCTTTATTTTAACATCGGAGTCACCTAGTGCAG	30800 fluorescence intensity (a.u.)
TCCCGATCGACGCGTGCATGGCGGCGAGCCTTCTGTCCCACGGAGTCACCTAGTGCAG	3330 fluorescence intensity (a.u.)
TGGTCAGGTGGAGGCATCGGTCGCCACGACGTGCGATTTCCGGAGTCACCTAGTGCAG	3770 fluorescence intensity (a.u.)
AAAAGACTTATTCCCAACTCAGATTGACTCAGCCCATCTCCGGAGTCACCTAGTGCAG	8390 fluorescence intensity (a.u.)
CTGCCATCTTCTCCTTTAAATACGTCATCGCTTAATTTCCCGGAGTCACCTAGTGCAG	11800 fluorescence intensity (a.u.)
GTCCTTCCTGGCCGTTGTCGACCGCGTGGCCGTCGCCGAGCGGAGTCACCTAGTGCAG	3740 fluorescence intensity (a.u.)
ACGGCAGGAACATCCGGAGGCGGTGGAGGCAGGCGTGGCGCGGAGTCACCTAGTGCAG	3900 fluorescence intensity (a.u.)
ACTTGCTACTTCCTCGTTGCATCCGTGGCATTTGGGCTAGCGGAGTCACCTAGTGCAG	3830 fluorescence intensity (a.u.)
GATATATATACGCGTTCATCAGCGTACGTTCTTATAGCTACGGAGTCACCTAGTGCAG	40100 fluorescence intensity (a.u.)
AATATCATCCACCAAAATCAACTGCCGCCGAAACCTCCCACGGAGTCACCTAGTGCAG	3260 fluorescence intensity (a.u.)
TAGGATACCACTAGGGTGCCACGTATGCTGATCATCCTCTCGGAGTCACCTAGTGCAG	6210 fluorescence intensity (a.u.)
TCAACGGCGTCAAACATTTTGAAACGGAGGGAGTATTAGACGGAGTCACCTAGTGCAG	11500 fluorescence intensity (a.u.)

Nothing new here: entries from further up.
Sequence	binding signal
GAAAACCGAGTCAAATACAAATGACGCACCAAAATATCGGCGGAGTCACCTAGTGCAG	6040 fluorescence intensity (a.u.)
CCCGATCCGGGTCAAATCGTCCGACTCATCGGGACAATCTCGGAGTCACCTAGTGCAG	3500 fluorescence intensity (a.u.)
